Measurements as given in the supplement of paper PMC9744312.
Counter-ions that a name gives are not always drawn. This is one part of the list. This is a noisy data set.

These compounds were tested on Peyronie's disease tunica albuginea primary fibroblasts (assay: cell viability (DRAQ5 nuclear stain) relative to TGF-beta1-only control; higher = more viable cells). Details: 10 µM; TGF-beta1 10 ng/mL; 72 h.
In the case of Nc1nc2[nH]cc(CCc3ccc(C(=O)N[C@@H](CCC(=O)O)C(=O)O)cc3)c2c(=O)[nH]1 [Pemetrexed Disodium Hydrate], the cell viability was 92.4%. Work on Nc1nc2[nH]cc(CCc3ccc(C(=O)N[C@@H](CCC(=O)O)C(=O)O)cc3)c2c(=O)[nH]1 [Pemetrexed] yielded a cell viability of 96.6%. CC(C)[C@H](N)C(=O)OCC(CO)OCn1cnc2c(=O)[nH]c(N)nc21 (stereo not given in full) [Valganciclovir HCl] gave a cell viability of 89%. Compound CN1CCC[C@@H]1CCO[C@](C)(c1ccccc1)c1ccc(Cl)cc1 [Clemastine Fumarate] has a cell viability of 72.1%. In the case of CCOc1ccc(NC(C)=O)cc1 [Phenacetin], the cell viability was 74.4%. For NCCCCC(NC(=O)C1CCCN1C(=O)C1CSSCC(N)C(=O)NC(Cc2ccc(O)cc2)C(=O)NC(Cc2ccccc2)C(=O)NC(CCC(N)=O)C(=O)NC(CC(N)=O)C(=O)N1)C(=O)NCC(N)=O (stereo not given) [Lypressin Acetate], the cell viability was 83%. With COc1cc2ncnc(Nc3ccc(F)c(Cl)c3)c2cc1OCCCN1CCOCC1 [Gefitinib (ZD1839)] the cell viability was 86.6%. For COc1cc2ncnc(Nc3ccc(F)c(Cl)c3)c2cc1OCCCN1CCOCC1 [Gefitinib hydrochloride], the cell viability was 59.2%. For CN1CCN(c2nc(C3=C(c4c[nH]c5ccccc45)C(=O)NC3=O)c3ccccc3n2)CC1 [Sotrastaurin], the cell viability was 86.9%. Work on CC(C(=O)O)c1ccc(C(=O)c2cccs2)cc1 (stereo not given) [Suprofen] yielded a cell viability of 82.1%. COC(=O)[C@]12CCC(C)(C)C[C@H]1[C@H]1C(=O)C=C3[C@@]4(C)C=C(C#N)C(=O)C(C)(C)[C@@H]4CC[C@@]3(C)[C@]1(C)CC2 [Bardoxolone Methyl] gave a cell viability of 25.2%. For CCCCC[C@H](O)/C=C/[C@H]1[C@H](O)CC(=O)[C@@H]1CCCCCCC(=O)O [Alprostadil], the cell viability was 89.7%. For CC[C@@H]([C@H](C)O)n1ncn(-c2ccc(N3CCN(c4ccc(OC[C@@H]5CO[C@@](Cn6cncn6)(c6ccc(F)cc6F)C5)cc4)CC3)cc2)c1=O [Posaconazole], the cell viability was 78%. For O=C(O)c1ccccc1 [Benzoic Acid], the cell viability was 94.6%. For CCN(CCCOc1ccc2c(Nc3cc(CC(=O)Nc4cccc(F)c4)[nH]n3)ncnc2c1)CCOP(=O)(O)O [Barasertib (AZD1152-HQPA)], the cell viability was 65.4%. NCc1ccc(S(N)(=O)=O)cc1 [Mafenide Acetate] gave a cell viability of 89.8%. NCc1ccc(S(N)(=O)=O)cc1 [Mafenide hydrochloride] was tested, and the cell viability was 94.8%. CN[C@@H]1[C@H](O[C@H]2[C@H](O[C@H]3[C@H](O)[C@@H](O)[C@H](NC(=N)N)[C@@H](O)[C@@H]3NC(=N)N)O[C@@H](C)[C@]2(O)CO)O[C@@H](CO)[C@H](O)[C@H]1O [Dihydrostreptomycin sulfate] was tested, and the cell viability was 89%. In the case of CC/C(=C(\c1ccccc1)c1ccc(OCCN(C)C)cc1)c1ccccc1 [Tamoxifen Citrate], the cell viability was 86.3%. With CC/C(=C(\c1ccccc1)c1ccc(OCCN(C)C)cc1)c1ccccc1 [Tamoxifen] the cell viability was 97.6%. CCc1oc2ccccc2c1C(=O)c1cc(Br)c(O)c(Br)c1 [Benzbromarone] was tested, and the cell viability was 85.4%. C=C(c1ccc(C(=O)O)cc1)c1cc2c(cc1C)C(C)(C)CCC2(C)C [Bexarotene] showed a cell viability of 92.3%. In the case of CCOC(=O)[N-]c1c[n+](N2CCOCC2)no1 [Molsidomine], the cell viability was 86.7%. Compound CC[N+](CC)(CC)CCOc1cccc(OCC[N+](CC)(CC)CC)c1OCC[N+](CC)(CC)CC [Gallamine Triethiodide] has a cell viability of 99.4%. In the case of CC(C)(C)NCC(O)c1cc(O)cc(O)c1 (stereo not given) [Terbutaline Sulfate], the cell viability was 95.2%. CNCc1cc(-c2ccccc2F)n(S(=O)(=O)c2cccnc2)c1 [Vonoprazan Fumarate (TAK-438)] was tested, and the cell viability was 80.3%. Cc1ccccc1C(OCCN(C)C)c1ccccc1 (stereo not given) [Orphenadrine Citrate] showed a cell viability of 92.1%. Cc1ccccc1C(OCCN(C)C)c1ccccc1 (stereo not given) [Orphenadrine Hydrochloride] gave a cell viability of 94.6%. O=C1C(O)=C([C@H]2CC[C@H](c3ccc(Cl)cc3)CC2)C(=O)c2ccccc21 [Atovaquone] was tested, and the cell viability was 92.2%. O=C1CCc2ccc(OCCCCN3CCN(c4cccc(Cl)c4Cl)CC3)cc2N1 [Aripiprazole] was tested, and the cell viability was 87.9%. With CN(C)CCOC(c1ccc(Cl)cc1)c1ccccn1 (stereo not given) [CarbinoxaMine Maleate] the cell viability was 108%. Work on NCCCC(N)(C(=O)O)C(F)F (stereo not given) [Eflornithine hydrochloride hydrate] yielded a cell viability of 94.5%. COC(=O)C1=C(C)NC(C)=C(C(=O)OCC(C)C)C1c1ccccc1[N+](=O)[O-] (stereo not given) [Nisoldipine] showed a cell viability of 100%. In the case of Oc1cc(O)c(Cl)cn1 [Gimeracil], the cell viability was 88.8%. OC[C@H]1O[C@@H](c2ccc(Cl)c(Cc3ccc(O[C@H]4CCOC4)cc3)c2)[C@H](O)[C@@H](O)[C@@H]1O gave a cell viability of 58.5%. In the case of CCCC(=O)[O-].[Na+] [Sodium butyrate], the cell viability was 86.9%. C/C=C(/C)C(=O)O[C@H]1[C@H](OC(C)=O)[C@@]2(CO)C(CC1(C)C)C1=CCC3[C@@]4(C)CCC(O[C@@H]5O[C@H](C(=O)O)[C@@H](O[C@@H]6O[C@H](CO)[C@@H](O)[C@H](O)[C@H]6O)[C@H](O)[C@H]5O[C@@H]5O[C@H](CO)[C@@H](O)[C@H](O)[C@H]5O)[C@](C)(CO)C4CC[C@@]3(C)[C@]1(C)C[C@H]2O.C/C=C(\C)C(=O)O[C@H]1[C@H](OC(C)=O)[C@@]2(CO)C(CC1(C)C)C1=CCC3[C@@]4(C)CCC(O[C@@H]5O[C@H](C(=O)O)[C@@H](O[C@@H]6O[C@H](CO)[C@@H](O)[C@H](O)[C@H]6O)[C@H](O)[C@H]5O[C@@H]5O[C@H](CO)[C@@H](O)[C@H](O)[C@H]5O)[C@](C)(CO)C4CC[C@@]3(C)[C@]1(C)C[C@H]2O (stereo not given in full) [Escin] gave a cell viability of 114%. O=C(O)COCCN1CCN([C@H](c2ccccc2)c2ccc(Cl)cc2)CC1 [Levocetirizine Dihydrochloride] gave a cell viability of 88.2%. Cc1cnc(C(=O)NCCc2ccc(S(=O)(=O)NC(=O)NC3CCCCC3)cc2)cn1 [Glipizide] was tested, and the cell viability was 97.8%. For COc1ccc2c(O[C@@H]3C[C@H]4C(=O)N[C@]5(C(=O)NS(=O)(=O)C6CC6)C[C@H]5/C=C\CCCCN(C)C(=O)[C@@H]4C3)cc(-c3nc(C(C)C)cs3)nc2c1C [Simeprevir], the cell viability was 95.3%. Compound O=C1[C@H](CC[C@H](O)c2ccc(F)cc2)[C@@H](c2ccc(O)cc2)N1c1ccc(F)cc1 [Ezetimibe] has a cell viability of 89.8%. For Cc1ncc(COP(=O)(O)O)c(C=O)c1O [Pyridoxal phosphate], the cell viability was 44.7%. CC(COc1ccccc1Cc1ccccc1)N1CCCCC1 (stereo not given) [Benproperine phosphate] showed a cell viability of 101%. Compound CC(O)(P(=O)(O)O)P(=O)(O)O [Etidronate] has a cell viability of 91.6%. C[C@]1(COc2ccc(N3CCC(Oc4ccc(OC(F)(F)F)cc4)CC3)cc2)Cn2cc([N+](=O)[O-])nc2O1 [Delamanid] was tested, and the cell viability was 93.2%. In the case of CCN(CC)CCOc1ccc(C(=C(Cl)c2ccccc2)c2ccccc2)cc1 [Clomifene citrate], the cell viability was 74.8%. For C=C[C@@H]1C[C@]1(NC(=O)[C@@H]1C[C@@H]2CN1C(=O)[C@H](C(C)(C)C)NC(=O)O[C@@H]1C[C@H]1CCCCCc1nc3ccc(OC)cc3nc1O2)C(=O)NS(=O)(=O)C1CC1 [Grazoprevir], the cell viability was 99.4%. In the case of CCCCCOC(=O)Nc1nc(=O)n([C@@H]2O[C@H](C)[C@@H](O)[C@H]2O)cc1F [Capecitabine], the cell viability was 70.8%. Compound CC(C)=CCC/C(C)=C/CC/C(C)=C/CSc1ccccc1C(=O)O [Salirasib] has a cell viability of 96.2%. Work on CCCCNc1ccc(C(=O)OCCN(C)C)cc1 [Tetracaine HCl] yielded a cell viability of 87.3%. Work on CCCCC(=O)N(Cc1ccc(-c2ccccc2-c2nn[nH]n2)cc1)C(C(=O)O)C(C)C.CCOC(=O)C(C)CC(Cc1ccc(-c2ccccc2)cc1)NC(=O)CCC(=O)O (stereo not given) [Sacubitril/valsartan (LCZ696)] yielded a cell viability of 94.1%. CN1CCOC(c2ccccc2)c2ccccc2C1 (stereo not given) [Nefopam HCl] gave a cell viability of 90.8%. Work on C[C@H](CSC(=O)c1ccccc1)C(=O)N1C[C@@H](Sc2ccccc2)C[C@H]1C(=O)O [Zofenopril calcium] yielded a cell viability of 93.2%. In the case of COc1ncc(-c2ccc3nccc(-c4ccnnc4)c3c2)cc1NS(=O)(=O)c1ccc(F)cc1F, the cell viability was 53.8%. With CN1CCC(=C2c3ccccc3CCc3sccc32)CC1 [Pizotifen Malate] the cell viability was 81.6%. Compound CCc1cc(C(N)=S)ccn1 [Ethionamide] has a cell viability of 93.2%. Compound CC(=O)Nc1c(I)c(NC(C)=O)c(I)c(C(=O)O)c1I [Diatrizoate sodium] has a cell viability of 93.9%. Compound CCOc1cc2ncc(C#N)c(Nc3ccc(OCc4ccccn4)c(Cl)c3)c2cc1NC(=O)/C=C/CN(C)C [Neratinib (HKI-272)] has a cell viability of 71.7%. O=C(N/N=C/c1ccc([N+](=O)[O-])o1)c1ccc(O)cc1 [Nifuroxazide] was tested, and the cell viability was 99.8%. For CC(C)=CCC/C(C)=C/CC/C(C)=C/CCC(=O)OC/C=C(\C)CCC=C(C)C [Gefarnate], the cell viability was 87.4%. NC(=O)c1ncn([C@@H]2O[C@H](CO)[C@@H](O)[C@H]2O)c1O [Mizoribine] was tested, and the cell viability was 83.6%. Compound Cc1cn([C@@H]2C[C@@H](O)[C@H](CO)O2)c(=O)[nH]c1=O [Telbivudine] has a cell viability of 99.7%. For CC(C)(O/N=C(\C(=O)N[C@@H]1C(=O)N2C(C(=O)[O-])=C(C[n+]3ccccc3)CS[C@H]12)c1csc(N)n1)C(=O)O [Ceftazidime], the cell viability was 80.9%. CC(C)(O/N=C(\C(=O)N[C@@H]1C(=O)N2C(C(=O)[O-])=C(C[n+]3ccccc3)CS[C@H]12)c1csc(N)n1)C(=O)O [Ceftazidime Pentahydrate] gave a cell viability of 91.6%. With CNCCC=C1c2ccccc2CCc2ccccc21 [Nortriptyline hydrochloride] the cell viability was 75.9%.
